Results on one substance are retold here after article PMC3843746.

The chains behind the UniProt entries cited, without tags or fusion partners.
UniProt P33895: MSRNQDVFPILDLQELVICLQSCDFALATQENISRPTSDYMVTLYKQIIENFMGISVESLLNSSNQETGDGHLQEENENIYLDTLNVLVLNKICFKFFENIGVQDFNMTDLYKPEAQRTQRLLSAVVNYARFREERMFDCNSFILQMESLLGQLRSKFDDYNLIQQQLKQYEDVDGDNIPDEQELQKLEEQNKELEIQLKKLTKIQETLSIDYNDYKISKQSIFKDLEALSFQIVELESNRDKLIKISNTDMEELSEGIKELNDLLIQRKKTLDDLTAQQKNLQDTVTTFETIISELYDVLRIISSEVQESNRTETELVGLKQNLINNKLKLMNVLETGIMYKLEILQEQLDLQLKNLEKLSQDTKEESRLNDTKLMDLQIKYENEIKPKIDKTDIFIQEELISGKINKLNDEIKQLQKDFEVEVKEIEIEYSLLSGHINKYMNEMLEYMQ
UniProt P40460: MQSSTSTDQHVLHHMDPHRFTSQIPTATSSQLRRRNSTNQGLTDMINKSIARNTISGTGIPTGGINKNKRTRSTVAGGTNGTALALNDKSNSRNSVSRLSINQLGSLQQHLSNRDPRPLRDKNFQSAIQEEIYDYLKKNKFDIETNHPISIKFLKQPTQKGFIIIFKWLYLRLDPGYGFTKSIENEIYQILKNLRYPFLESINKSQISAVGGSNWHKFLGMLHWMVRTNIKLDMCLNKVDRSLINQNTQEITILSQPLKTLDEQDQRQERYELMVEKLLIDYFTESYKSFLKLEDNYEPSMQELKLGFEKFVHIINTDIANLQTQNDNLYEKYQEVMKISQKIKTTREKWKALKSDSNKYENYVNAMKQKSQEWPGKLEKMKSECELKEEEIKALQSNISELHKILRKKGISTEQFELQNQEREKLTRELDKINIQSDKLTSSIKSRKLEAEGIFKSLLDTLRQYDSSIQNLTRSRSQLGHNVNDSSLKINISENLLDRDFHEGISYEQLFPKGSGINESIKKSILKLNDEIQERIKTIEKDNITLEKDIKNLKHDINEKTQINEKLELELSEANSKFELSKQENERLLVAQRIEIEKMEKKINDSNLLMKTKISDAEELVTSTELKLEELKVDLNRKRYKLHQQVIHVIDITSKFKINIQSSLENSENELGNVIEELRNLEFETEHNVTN

Results are given in words; binding and its absence hold for the method and conditions named. In cells and extracts the contact can be indirect. Some results given as binding are weak or reduced against the parent protein; the word gives no strength.

This assay has as its target Nuf2 labelled with Venus (Saccharomyces cerevisiae) (UniProt P33895). Kind of assay: FRET or BRET; epifluorescence of live yeast, kinetochore clusters; proximity ratios with mCerulean-Venus as FRET pair at positions equivalent to the GFP-mCherry strains. On the technique in general: BRET reads energy transfer from a luciferase to a nearby fluorophore.

As for “Ndc80 labelled with mCerulean (from UniProt P40460 1-691)”, the binding entry is reported as “binds”.
